# Measurements: PMC6736559
# No constants are given. Whether binding was seen depends on the method and setting. Binding seen in cells or lysates may run through a third protein. For some of these results: Binding can be weak; no strength is given. Sequences can lack the tags named with a protein.
# How the values were obtained:
# [1] = target: T1, Myc-tagged mouse stimulator of interferon gene (MmSTING) (mouse) (UniProt Q3TBT3); test: co-IP; HEK293T co-transfected with Flag- and Myc-tagged expression plasmids for 24 h, then stimulated with 1 ug/ml poly(dA:dT) for 6 h; lysed in homo buffer with protease inhibitors, sonicated; lysate immunoprecipitated with anti-Myc overnight at 4 C, protein A sepharose 4 h at 4 C, washed 3 times with PBS; blot with anti-Flag and anti-Myc
# T1 sequence: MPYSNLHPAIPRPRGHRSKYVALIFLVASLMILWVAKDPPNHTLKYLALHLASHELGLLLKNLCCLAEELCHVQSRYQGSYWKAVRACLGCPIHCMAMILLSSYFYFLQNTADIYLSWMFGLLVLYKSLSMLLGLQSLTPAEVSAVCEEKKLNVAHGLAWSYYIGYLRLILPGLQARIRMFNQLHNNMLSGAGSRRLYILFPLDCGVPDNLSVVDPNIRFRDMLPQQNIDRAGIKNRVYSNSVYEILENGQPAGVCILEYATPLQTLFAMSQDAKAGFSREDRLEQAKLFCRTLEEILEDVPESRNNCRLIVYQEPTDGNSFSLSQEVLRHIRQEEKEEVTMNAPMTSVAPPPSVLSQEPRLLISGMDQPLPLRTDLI
# [2] = target: T1, Myc-tagged mouse stimulator of interferon gene (MmSTING) (mouse); test: condition: only after stimulation of the cells with HMW poly(I:C) (1 ug/ml, 6 h); co-IP; as a1, but cells stimulated with 1 ug/ml HMW poly(I:C) for 6 h instead of poly(dA:dT); anti-Myc immunoprecipitation, blot with anti-Flag and anti-Myc
binding [1],binding [2],Substance
binds,no binding,Flag-tagged DEADc domain of PmDDX41 (DeadPm) (Penaeus monodon) (domain or fragment)
binds,no binding,Flag-tagged full-length PmDDX41 (Penaeus monodon)
